Experimental data: PubChem BioAssay AID652272 (Drosophila RNAi Screening Center, 2013)

- Aim: 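Genes whose knock-down decreases or increases Hedgehog reporter output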 (primary screen)
- Cells: Drosophila clone 8 (Cl8) cells
- Knock-down reagent: long dsRNA against Drosophila genes
- Measured: 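Plate reader light from a firefly reporter under a ptc promoter fragment that responds to Hedgehog, with Renilla light as transfection reference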
- Scale: firefly Hh reporter signal: higher = more ptc reporter light; Renilla reference signal: higher = more Renilla control light
- Active means: 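Called a hit if the two-replicate mean z-score lies below -2 or above +3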
- Calls: active = hit: reporter lowered or raised; inactive = not a hit
In all, the deposit lists about 21,000 reagents; this is a random part of those that have a named target and a result. Of all reagents, 503 (2.4%) got an active call. 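Raw plate light values, not normalised; calls rest on replicate z-scores that were not deposited; hits include reporter decreases as well as increases.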 A number with no mark means an inactive call. No sequences are given here. The record does not give: the amount of reagent, the time to read-out.

| Target gene | PubChem SID | firefly Hh reporter signal, replicate 1 | firefly Hh reporter signal, replicate 2 | firefly Hh reporter signal, replicate 3 | Renilla reference signal, replicate 1 | Renilla reference signal, replicate 2 |
| --- | --- | --- | --- | --- | --- | --- |
| gogo (GeneID 40225) | SID104189862 | 83245 | 96464 | – | 3188 | 2726 |
| gogo (GeneID 40225) | SID104189863 | 89014 | 86129 | – | 3108 | 2834 |
| CG12112 (GeneID 31794) | SID104197601 | 1.68e5 | 1.29e5 | – | 4064 | 3160 |
| nAChRalpha5 (GeneID 34826) | SID104181152 | 1.91e5 | 3.34e5 | – | 5117 | 16241 |
| nAChRalpha5 (GeneID 34826) | SID104181738 | 1.37e5 | 64722 | – | 3570 | 5648 |
| nAChRalpha5 (GeneID 34826) | SID104181739 | 1.54e5 | 62664 | – | 3959 | 6114 |
| Obp47a (GeneID 36162) | SID104186047 | 96194 | 50961 | – | 1994 | 1088 |
| Wwox (GeneID 34090) | SID104182822 | 2.08e5 | 1.04e5 | – | 7665 | 4917 |
| Gclm (GeneID 248194) | SID104195469 | 1.03e5 | 73292 | – | 4290 | 3155 |
| resilin (GeneID 36880) | SID104185419 | 1.17e5 | 2.63e5 | – | 3148 | 9274 |
| resilin (GeneID 36880) | SID104186387 | 1.55e5 | 72909 | – | 4144 | 3956 |
| Nxt1 (GeneID 37769) | SID104184422 | 64040 | 35649 | – | 1637 | 3669 |
| CG5114 (GeneID 39624) | SID104190274 | 1.05e5 | 84966 | – | 4282 | 3717 |
| CG12299 (GeneID 34483) | SID104181950 | 46587 | 51349 | – | 1523 | 2141 |
| CG11686 (GeneID 50024) | SID104194142 | 71504 | 69830 | – | 2122 | 1990 |
| KFase (GeneID 33907) | SID104183050 | 68736 | 65063 | – | 1524 | 5540 |
| Remo (GeneID 2768909) | SID104199502 | 81921 | 1.89e5 | – | 944 | 6470 |
| sphe (GeneID 32648) | SID104199995 | 1.08e5 | 1.26e5 | – | 1928 | 3019 |
| Best1 (GeneID 53431) | SID104196701 | 1.04e5 | 2.01e5 | – | 3084 | 6147 |
| CG46385 (GeneID 246653) | SID104186217 | 23896 | 19565 | – | 1450 | 1029 |
| CG46385 (GeneID 246653) | SID104186349 | 67353 | 45098 | – | 1380 | 3201 |

Records above whose gene name starts with N or n (4):
| Target gene | PubChem SID | firefly Hh reporter signal, replicate 1 | firefly Hh reporter signal, replicate 2 | firefly Hh reporter signal, replicate 3 | Renilla reference signal, replicate 1 | Renilla reference signal, replicate 2 |
| --- | --- | --- | --- | --- | --- | --- |
| nAChRalpha5 (GeneID 34826) | SID104181152 | 1.91e5 | 3.34e5 | – | 5117 | 16241 |
| nAChRalpha5 (GeneID 34826) | SID104181738 | 1.37e5 | 64722 | – | 3570 | 5648 |
| nAChRalpha5 (GeneID 34826) | SID104181739 | 1.54e5 | 62664 | – | 3959 | 6114 |
| Nxt1 (GeneID 37769) | SID104184422 | 64040 | 35649 | – | 1637 | 3669 |

Continued.
| Target gene | PubChem SID | firefly Hh reporter signal, replicate 1 | firefly Hh reporter signal, replicate 2 | firefly Hh reporter signal, replicate 3 | Renilla reference signal, replicate 1 | Renilla reference signal, replicate 2 |
| --- | --- | --- | --- | --- | --- | --- |
| CG7715 (GeneID 42251) | SID104196093 | 7.68e5 | 1.27e5 | – | 40041 | 3541 |
| Ulp1 (GeneID 32910) | SID104199131 | 1.69e5 | 99056 | – | 4160 | 2476 |
| CG33203 (GeneID 43414) | SID104194666 | 1.02e5 | 92972 | – | 3062 | 2922 |
| CG33203 (GeneID 43414) | SID104194668 | 98188 | 1.48e5 | – | 3403 | 5046 |
| CG33203 (GeneID 43414) | SID104194669 | 1.65e5 | 2.00e5 | – | 5016 | 6376 |
| CG31788 (GeneID 318942) | SID104181422 | 1.17e5 | 2.29e5 | – | 1809 | 11765 |
| RpL18 (GeneID 38794) | SID104190808 | 47303 (active) | 2.11e5 | 41920 | 8679 | 18058 |
| PDCD-5 (GeneID 39776) | SID104189747 | 1.51e5 | – | – | 6384 | 4486 |
| CG42656 (GeneID 10178806) | SID104192264 | 2.53e5 | – | – | 5536 | – |
| CG10459 (GeneID 36000) | SID104185783 | 1.39e5 | 77238 | – | 3381 | 7468 |
| RhoGAP100F (GeneID 43758) | SID104195201 | 66037 | 61641 | – | 1826 | 2115 |
| Ctf4 (GeneID 36551) | SID104186172 | 1.07e5 | 64507 | – | 4800 | 2774 |
| AMPKalpha (GeneID 43904) | SID104198506 | 89641 | 1.26e5 | – | 552 | 2979 |
| Tsp42Ej (GeneID 35620) | SID104185905 | 63113 | 33682 | – | 2640 | 1329 |
| Mur29B (GeneID 319014) | SID104180810 | 7.50e5 | 3.27e5 | – | 38022 | 13386 |
| Mur29B (GeneID 319014) | SID104182168 | 1.65e5 | 94938 | – | 4231 | 7168 |
| Reph (GeneID 47399) | SID104180426 | 1.42e5 | 1.50e5 | – | 5604 | 6205 |
| Acbp6 (GeneID 38782) | SID104190009 | 94560 | 67840 | – | 8445 | 5156 |
